Data set [1] has as its system HLA molecules of primary tumor and normal tissue samples (cancer entities). Put plainly: Identification and label-free LC-MS quantitation of HLA-presented tumor-associated peptides on tissue samples. The note with it: cancer entities on whose tumor tissue samples the HLA-presented peptide was found (LC-MS); abbreviations in the footnotes of Table 8a. Also on record: species or system human.

The subject of data set [2] is source gene exon mRNA in tumor and normal tissue samples. Put plainly: Expression profiling (RNAseq) of genes encoding the peptides, tumor versus normal tissues. The following applies: RNAseq, Table 9a; for Exon Expression in tumor types vs normal tissue panel: highly over-expressed (++): tumor types in which the peptide's exon is highly over-expressed (++) vs panel of normal tissues; for Exon Expression in tumor types vs normal tissue panel: over-expressed (+): tumor types in which the peptide's exon is over-expressed (+) vs panel of normal tissues; for Exon Expression in tumor types vs normal tissue panel: very highly over-expressed (+++): tumor types in which the peptide's exon is very highly over-expressed (+++) vs panel of normal tissues. Also on record: species or system human.

For part of these data: For expression read-outs the peptide stands for its source gene, whose mRNA was measured; the gene is not named for every peptide.

As for “274: peptide found in PTPRZ1 (gene looked up) (EYSLPVLTF; listed as Homo sapiens) [compound 274]”, the “Peptide Presentation on cancer entities” value in data set [1] was “AML, CCC, CLL, CRC, GBC, GBM, GC, HCC, HNSCC, MEL, NSCLCadeno, NSCLCother, NSCLCsquam, OC, OSCAR, RCC, SCLC, UBC, UEC”. The “Exon Expression in tumor types vs normal tissue panel: highly over-expressed (++)” value in data set [2] is listed as “GBM”.

Turning to “227: peptide found in CYP1A1 (gene looked up) (YLPNPSLNAF; listed as Homo sapiens) [compound 227]”, in data set [1], the “Peptide Presentation on cancer entities” value is “CLL, GC, NSCLCadeno, NSCLCsquam”. For the same substance, in data set [2], the “Exon Expression in tumor types vs normal tissue panel: highly over-expressed (++)” value was “NSCLCother”.

As to “85: peptide found in UGT1A3 (gene looked up) (KYLSIPTVFF; listed as Homo sapiens) [compound 85]”, the “Peptide Presentation on cancer entities” value in data set [1] is on record as “CCC, GBC, GC, HCC, NSCLCadeno, PRCA, RCC, UBC”. For the same substance, the “Exon Expression in tumor types vs normal tissue panel: highly over-expressed (++)” value in data set [2] was “HCC”.

For the substance “2: peptide found in AFP (gene looked up) (LYAPTILLW; listed as Homo sapiens) [compound 2]”, in data set [1], the “Peptide Presentation on cancer entities” value is “CRC, GC, NSCLCadeno, NSCLCsquam, UEC”. For the same substance, in data set [2], the “Exon Expression in tumor types vs normal tissue panel: over-expressed (+)” value was “GBC” and the “Exon Expression in tumor types vs normal tissue panel: very highly over-expressed (+++)” value is “CCC, HCC”.

For “236: peptide found in PGR (gene looked up) (LHLYCLNTF; listed as Homo sapiens) [compound 236]”, the “Peptide Presentation on cancer entities” value in data set [1] is “CCC”. Also, in data set [2], the “Exon Expression in tumor types vs normal tissue panel: highly over-expressed (++)” value is recorded as “UEC” and the “Exon Expression in tumor types vs normal tissue panel: over-expressed (+)” value is given as “BRCA”.

Turning to “306: peptide found in SLC7A11 (gene looked up) (RYILEPFFI; listed as Homo sapiens) [compound 306]”, the “Peptide Presentation on cancer entities” value in data set [1] is given as “BRCA, CCC, CRC, GBC, GBM, GC, HCC, HNSCC, MEL, NHL, NSCLCadeno, NSCLCother, NSCLCsquam, OC, OSCAR, PACA, PRCA, RCC, SCLC, UBC, UEC”. Moreover, in data set [2], the “Exon Expression in tumor types vs normal tissue panel: highly over-expressed (++)” value was “NSCLCsquam” and the “Exon Expression in tumor types vs normal tissue panel: over-expressed (+)” value is “HNSCC, NSCLCadeno, OSCAR”.

For the substance “266: peptide found in CSF2 (gene looked up) (TQIITFESF; listed as Homo sapiens) [compound 266]”, in data set [1], the “Peptide Presentation on cancer entities” value is on record as “MEL”. Besides, in data set [2], the “Exon Expression in tumor types vs normal tissue panel: highly over-expressed (++)” value is on record as “HNSCC” and the “Exon Expression in tumor types vs normal tissue panel: over-expressed (+)” value is reported as “NSCLCadeno, NSCLCsquam, OSCAR, UBC”.

Take “202: peptide found in PTPRZ1 (gene looked up) (VYDTMIEKFA; listed as Homo sapiens) [compound 202]”: in data set [1], the “Peptide Presentation on cancer entities” value was “GBM, NSCLCadeno, NSCLCother, NSCLCsquam”. Besides, in data set [2], the “Exon Expression in tumor types vs normal tissue panel: highly over-expressed (++)” value is given as “GBM”.

Regarding “371: peptide found in NOS2 (gene looked up) (FRSWAVQTF; listed as Homo sapiens) [compound 371]”, in data set [1], the “Peptide Presentation on cancer entities” value is on record as “AML, CRC, GC”. In data set [2], the “Exon Expression in tumor types vs normal tissue panel: over-expressed (+)” value is listed as “CRC”.

In the case of “29: peptide found in OR51E2 (gene looked up) (IYLLLPPVI; listed as Homo sapiens) [compound 29]”, the “Peptide Presentation on cancer entities” value in data set [1] is given as “NSCLCadeno, PRCA”. For the same substance, the “Exon Expression in tumor types vs normal tissue panel: very highly over-expressed (+++)” value in data set [2] is “PRCA”.

In the case of “97: peptide found in OR51E2 (gene looked up) (TQMFFIHAL; listed as Homo sapiens) [compound 97]”, the “Peptide Presentation on cancer entities” value in data set [1] is reported as “PRCA”. In addition, the “Exon Expression in tumor types vs normal tissue panel: very highly over-expressed (+++)” value in data set [2] was “PRCA”.

“241: peptide found in ESR1 (gene looked up) (QKYYITGEAEGF; listed as Homo sapiens) [compound 241]”: the “Peptide Presentation on cancer entities” value in data set [1] was “OSCAR”. Besides, the “Exon Expression in tumor types vs normal tissue panel: highly over-expressed (++)” value in data set [2] is on record as “BRCA, UEC”.

Turning to “32: peptide found in MMP1 (gene looked up) (FYPEVELNF; listed as Homo sapiens) [compound 32]”, in data set [1], the “Peptide Presentation on cancer entities” value was “CCC, UBC”. In data set [2], the “Exon Expression in tumor types vs normal tissue panel: highly over-expressed (++)” value is on record as “HNSCC, NSCLCadeno, NSCLCsquam, OSCAR, UBC” and the “Exon Expression in tumor types vs normal tissue panel: over-expressed (+)” value is given as “CRC, GC, MEL, PACA”.

“147: peptide found in DLL3 (gene looked up) (FPYPSSILSV; listed as Homo sapiens) [compound 147]”: the “Peptide Presentation on cancer entities” value in data set [1] was “GBM”. Moreover, in data set [2], the “Exon Expression in tumor types vs normal tissue panel: highly over-expressed (++)” value was “GBM, SCLC” and the “Exon Expression in tumor types vs normal tissue panel: over-expressed (+)” value was “MEL”.

In the case of “190: peptide found in FLT3 (gene looked up) (IYIIMQSCW; listed as Homo sapiens) [compound 190]”, the “Peptide Presentation on cancer entities” value in data set [1] is on record as “AML”. Also, the “Exon Expression in tumor types vs normal tissue panel: highly over-expressed (++)” value in data set [2] is listed as “AML”.

“386: peptide found in AR (gene looked up) (YQSRDYYNF; listed as Homo sapiens) [compound 386]”: the “Peptide Presentation on cancer entities” value in data set [1] is reported as “CRC, GBC, GBM, GC, HCC, HNSCC, NSCLCadeno, NSCLCsquam, OC, PRCA, UBC, UEC”. The “Exon Expression in tumor types vs normal tissue panel: over-expressed (+)” value in data set [2] is “BRCA, HCC, PRCA”.

As for “344: peptide found in ABCC4 (gene looked up) (YAYATVLTF; listed as Homo sapiens) [compound 344]”, the “Peptide Presentation on cancer entities” value in data set [1] is reported as “GBC, GC, NHL, NSCLCadeno, UBC”. In addition, the “Exon Expression in tumor types vs normal tissue panel: over-expressed (+)” value in data set [2] was “PRCA”.

Turning to “71: peptide found in CYP1A1 (gene looked up) (RYLPNPSLNAF; listed as Homo sapiens) [compound 71]”, in data set [1], the “Peptide Presentation on cancer entities” value was “HCC, NSCLCadeno”. Also, the “Exon Expression in tumor types vs normal tissue panel: highly over-expressed (++)” value in data set [2] was “NSCLCother”.

For the substance “387: peptide found in NUP155 (gene looked up) (THAGVRLYF; listed as Homo sapiens) [compound 387]”, in data set [1], the “Peptide Presentation on cancer entities” value is “CRC, GBC, GC, HCC, NHL, NSCLCadeno, NSCLCsquam, OC, OSCAR, PRCA, UEC”. In data set [2], the “Exon Expression in tumor types vs normal tissue panel: over-expressed (+)” value is on record as “NSCLCother, NSCLCsquam, SCLC”.

Consider “305: peptide found in MRGPRX1 (gene looked up) (RNAFSIYIL; listed as Homo sapiens) [compound 305]”, for which, in data set [1], the “Peptide Presentation on cancer entities” value is on record as “CRC, NSCLCadeno”. Further, in data set [2], the “Exon Expression in tumor types vs normal tissue panel: highly over-expressed (++)” value is “MEL” and the “Exon Expression in tumor types vs normal tissue panel: over-expressed (+)” value is “HNSCC”.

Consider “240: peptide found in APOB (gene looked up) (RVHANPLLI; listed as Homo sapiens) [compound 240]”, for which the “Peptide Presentation on cancer entities” value in data set [1] was “HCC”. The “Exon Expression in tumor types vs normal tissue panel: highly over-expressed (++)” value in data set [2] is “HCC”.

On to “275: peptide found in PTPRZ1 (gene looked up) (PEYSLPVLTF; listed as Homo sapiens) [compound 275]”, for which the “Peptide Presentation on cancer entities” value in data set [1] is “NHL”. Also, the “Exon Expression in tumor types vs normal tissue panel: highly over-expressed (++)” value in data set [2] is reported as “GBM”.

“281: peptide found in ROS1 (gene looked up) (MDQNQVVWTF; listed as Homo sapiens) [compound 281]”: in data set [1], the “Peptide Presentation on cancer entities” value is listed as “NSCLCadeno”. In data set [2], the “Exon Expression in tumor types vs normal tissue panel: highly over-expressed (++)” value is “NSCLCadeno” and the “Exon Expression in tumor types vs normal tissue panel: over-expressed (+)” value is on record as “NSCLCother, NSCLCsquam”.

For the origin of these results see patent US12060400B2, “Peptides for use in immunotherapy against cancers” (Immatics Biotechnologies GmbH, priority 2018, dated 2024).
